Data as given in PubChem BioAssay AID1259308 (NCATS, 2017)

- Test: 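Genes whose loss raises luciferase production in HEK293 cells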 (primary screen)
- System: human HEK293 embryonic kidney cells stably expressing firefly luciferase (HEK-CMV-Luc2-Hygro)
- Knock-down reagent: single siRNA against human genes, 0.8 pmol siRNA per well
- Time to read-out: 72 h
- Measured: 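Luciferase light (ONE-Glo) measured on one replicate plate set and viability (CellTiter-Glo) on the other, scaled to a negative control siRNA, with robust z-scores and luciferase per cell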
- Reading the numbers: total luciferase, z-score and total luciferase, % of control: higher = more reporter protein produced
- Active means: 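An siRNA counts as active if its total luciferase robust z-score exceeds 3; genes with two or more such siRNAs out of three were retested with fresh siRNAs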
- Calls: active = raised luciferase; inactive = no rise
Here is one part, drawn at random, of about 59,000 reagents tested. Of all reagents, about 1,510 (2.6%) were called active. 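Calls use total luciferase alone and ignore viability, so some active siRNAs may act by altering cell number.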 A number with no mark means an inactive call. Reagents against one gene are numbered here. Further read-outs or replicates are left out here.

| target gene | reagent no. | total luciferase, z-score | total luciferase, % of control |
| --- | --- | --- | --- |
| ADAMTS8 (ADAM metallopeptidase with thrombospondin type 1 motif 8) | 1 | 0.251 | 86.9 |
| ADAMTS8 (ADAM metallopeptidase with thrombospondin type 1 motif 8) | 2 | 0.294 | 87.7 |
| ADAMTS8 (ADAM metallopeptidase with thrombospondin type 1 motif 8) | 3 | -0.659 | 68.8 |
| ASPM (assembly factor for spindle microtubules) | 1 | 0.00422 | 82 |
| ASPM (assembly factor for spindle microtubules) | 2 | -0.138 | 79.1 |
| ASPM (assembly factor for spindle microtubules) | 3 | 3.19 (active) | 145 |
| LINC02538 (long independently transcribed non-coding RNA 2538) | 1 | -0.212 | 77.7 |
| LINC02538 (long independently transcribed non-coding RNA 2538) | 2 | 1.71 | 116 |
| LINC02538 (long independently transcribed non-coding RNA 2538) | 3 | -2.46 | 33 |
| E2F6P4 (E2F transcription factor 6 pseudogene 4) | 1 | -0.514 | 71.7 |
| E2F6P4 (E2F transcription factor 6 pseudogene 4) | 2 | -0.279 | 76.3 |
| E2F6P4 (E2F transcription factor 6 pseudogene 4) | 3 | -0.248 | 76.9 |
| PHB2 (prohibitin 2) | 1 | 0.359 | 89 |
| PHB2 (prohibitin 2) | 2 | -0.00167 | 81.9 |
| PHB2 (prohibitin 2) | 3 | -1.62 | 49.7 |
| PHYHIPL (phytanoyl-CoA 2-hydroxylase interacting protein like) | 1 | 0.894 | 99.7 |
| PHYHIPL (phytanoyl-CoA 2-hydroxylase interacting protein like) | 2 | -0.789 | 66.2 |
| PHYHIPL (phytanoyl-CoA 2-hydroxylase interacting protein like) | 3 | -1.42 | 53.5 |
| RIMS3 (regulating synaptic membrane exocytosis 3) | 1 | -1.92 | 43.6 |
| RIMS3 (regulating synaptic membrane exocytosis 3) | 2 | 0.432 | 90.5 |
| RIMS3 (regulating synaptic membrane exocytosis 3) | 3 | 0.451 | 90.9 |
| TLR3 (toll like receptor 3) | 1 | 1.24 | 107 |
| TLR3 (toll like receptor 3) | 2 | -0.422 | 73.5 |
| TLR3 (toll like receptor 3) | 3 | -0.846 | 65.1 |
| LOC648999 (retired record) | 1 | 1.77 | 117 |
| LOC648999 (retired record) | 2 | -0.346 | 75 |
| LOC648999 (retired record) | 3 | 1.09 | 104 |
| MEST (mesoderm specific transcript) | 1 | 0.57 | 93.2 |
| MEST (mesoderm specific transcript) | 2 | -0.935 | 63.3 |
| MEST (mesoderm specific transcript) | 3 | 0.538 | 92.6 |
| LINC01588 (long independently transcribed non-coding RNA 1588) | 1 | 0.388 | 89.6 |
| LINC01588 (long independently transcribed non-coding RNA 1588) | 2 | 0.163 | 85.1 |
| LINC01588 (long independently transcribed non-coding RNA 1588) | 3 | -0.119 | 79.5 |
| IDH1 (isocitrate dehydrogenase (NADP(+)) 1) | 1 | -1.19 | 58.2 |
| IDH1 (isocitrate dehydrogenase (NADP(+)) 1) | 2 | 1.17 | 105 |
| IDH1 (isocitrate dehydrogenase (NADP(+)) 1) | 3 | 0.315 | 88.2 |
| PTMAP11 (prothymosin alpha pseudogene 11) | 1 | -0.492 | 72.1 |
| PTMAP11 (prothymosin alpha pseudogene 11) | 2 | -0.0629 | 80.6 |
| PTMAP11 (prothymosin alpha pseudogene 11) | 3 | -0.264 | 76.6 |
| BTBD17 (BTB domain containing 17) | 1 | 0.958 | 101 |
| BTBD17 (BTB domain containing 17) | 2 | -0.477 | 72.4 |
| BTBD17 (BTB domain containing 17) | 3 | 0.186 | 85.6 |
| SEC24A (SEC24 homolog A, COPII component) | 1 | 1.48 | 111 |
| SEC24A (SEC24 homolog A, COPII component) | 2 | -0.724 | 67.5 |
| SEC24A (SEC24 homolog A, COPII component) | 3 | -1.21 | 57.8 |
| DDX25 (DEAD-box helicase 25) | 1 | -0.312 | 75.7 |
| DDX25 (DEAD-box helicase 25) | 2 | 0.141 | 84.7 |
| DDX25 (DEAD-box helicase 25) | 3 | 0.375 | 89.3 |
| TRIAP1 (TP53 regulated inhibitor of apoptosis 1) | 1 | -0.0726 | 80.4 |
| TRIAP1 (TP53 regulated inhibitor of apoptosis 1) | 2 | -0.404 | 73.8 |
| TRIAP1 (TP53 regulated inhibitor of apoptosis 1) | 3 | -2.24 | 37.3 |
| UQCRBP1 | 1 | -0.338 | 75.2 |
| UQCRBP1 | 2 | 0.71 | 96 |
| UQCRBP1 | 3 | -1.89 | 44.4 |
| ADAM11 (ADAM metallopeptidase domain 11) | 1 | 0.709 | 96 |
| ADAM11 (ADAM metallopeptidase domain 11) | 2 | 0.0499 | 82.9 |
| ADAM11 (ADAM metallopeptidase domain 11) | 3 | 1.83 | 118 |
